Assay results: PMC4906169
Results are given in words; binding and its absence hold for the method and conditions named. In cells and extracts the contact can be indirect. Some binding calls cover weakened binding; strength is not graded here. Tags and fused reporters may be left off the sequences shown.

Tests used:
Assay in all cases: split reporter; BiFC with Yn/Yc halves of VENUS fused to the N-termini; transient co-expression in N. benthamiana epidermal leaf cells, imaged by confocal microscopy 62 h after infiltration
[1] = target: Got1p Arabidopsis homologue, BiFC fusion (Arabidopsis thaliana) (UniProt Q6NMM1)
[2] = target: T1, Cellulose synthase CesA1, BiFC fusion (Arabidopsis thaliana) (UniProt O48946)
T1 sequence: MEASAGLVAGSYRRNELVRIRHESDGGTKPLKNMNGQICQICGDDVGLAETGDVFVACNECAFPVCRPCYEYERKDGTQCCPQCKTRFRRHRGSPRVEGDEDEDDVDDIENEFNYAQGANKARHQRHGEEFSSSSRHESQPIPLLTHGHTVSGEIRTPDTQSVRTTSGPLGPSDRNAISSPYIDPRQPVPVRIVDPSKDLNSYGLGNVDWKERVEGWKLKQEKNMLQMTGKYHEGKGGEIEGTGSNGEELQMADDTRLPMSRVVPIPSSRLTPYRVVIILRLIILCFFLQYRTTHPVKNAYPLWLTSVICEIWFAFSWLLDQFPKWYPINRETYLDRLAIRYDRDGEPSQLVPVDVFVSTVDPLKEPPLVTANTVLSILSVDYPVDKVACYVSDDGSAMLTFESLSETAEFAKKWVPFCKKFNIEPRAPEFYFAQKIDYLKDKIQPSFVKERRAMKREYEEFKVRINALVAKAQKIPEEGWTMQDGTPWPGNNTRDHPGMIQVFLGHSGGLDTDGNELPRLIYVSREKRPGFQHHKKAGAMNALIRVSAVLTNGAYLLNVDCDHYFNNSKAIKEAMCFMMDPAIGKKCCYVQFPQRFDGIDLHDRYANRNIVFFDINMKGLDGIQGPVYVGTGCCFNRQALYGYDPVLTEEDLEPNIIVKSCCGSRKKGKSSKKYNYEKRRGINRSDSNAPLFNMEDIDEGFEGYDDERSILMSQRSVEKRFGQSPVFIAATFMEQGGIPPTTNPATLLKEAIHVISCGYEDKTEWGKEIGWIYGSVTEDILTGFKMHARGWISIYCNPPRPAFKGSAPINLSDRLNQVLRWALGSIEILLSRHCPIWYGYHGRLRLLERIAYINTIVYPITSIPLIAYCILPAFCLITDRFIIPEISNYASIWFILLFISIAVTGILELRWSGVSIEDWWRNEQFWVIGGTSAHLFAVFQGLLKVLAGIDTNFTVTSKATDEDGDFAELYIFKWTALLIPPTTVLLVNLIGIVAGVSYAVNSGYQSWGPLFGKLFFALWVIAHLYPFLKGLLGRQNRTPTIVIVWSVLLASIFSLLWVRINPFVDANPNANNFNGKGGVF

[3] = target: T2, STELLO2 (STL2), BiFC fusion (Yn-STL2 / Yc-STL2) (Arabidopsis thaliana) (UniProt Q9SCN0)
T2 sequence: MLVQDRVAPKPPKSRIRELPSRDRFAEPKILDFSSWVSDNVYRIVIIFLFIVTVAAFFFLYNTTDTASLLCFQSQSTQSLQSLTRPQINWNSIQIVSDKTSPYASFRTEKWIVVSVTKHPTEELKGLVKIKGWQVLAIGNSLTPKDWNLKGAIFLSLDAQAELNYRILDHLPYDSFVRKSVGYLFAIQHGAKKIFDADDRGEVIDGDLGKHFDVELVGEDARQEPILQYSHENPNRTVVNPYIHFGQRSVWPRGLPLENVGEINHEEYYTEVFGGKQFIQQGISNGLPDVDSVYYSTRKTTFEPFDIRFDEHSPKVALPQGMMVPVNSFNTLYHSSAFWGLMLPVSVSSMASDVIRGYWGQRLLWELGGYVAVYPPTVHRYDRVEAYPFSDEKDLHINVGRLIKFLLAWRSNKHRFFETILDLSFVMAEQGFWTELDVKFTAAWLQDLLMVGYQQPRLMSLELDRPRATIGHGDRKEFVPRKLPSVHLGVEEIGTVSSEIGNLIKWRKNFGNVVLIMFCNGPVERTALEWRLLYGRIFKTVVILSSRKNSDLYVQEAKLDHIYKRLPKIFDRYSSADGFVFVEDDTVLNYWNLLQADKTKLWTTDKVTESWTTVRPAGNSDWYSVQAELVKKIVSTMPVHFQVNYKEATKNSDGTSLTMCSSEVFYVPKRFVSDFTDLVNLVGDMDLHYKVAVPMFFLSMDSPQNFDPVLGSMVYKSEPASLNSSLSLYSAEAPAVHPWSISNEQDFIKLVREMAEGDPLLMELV

binding [1]: binds
binding [2]: no binding
binding [3]: no binding
B1: Got1p Arabidopsis homologue, BiFC fusion (protein, UniProt Q6NMM1 1-140)
chain: MASLEMNDLKKIGLGLTGFGVFFTFLGVIFVFDKGLIAMGNILFLAGVTLTIGINPAIQFFTKRQNFKGTISFGLGFLLVVFGWPIFGLLLESYGFLVLFSGFWPTLAVFLQRIPLLGWLLQQPYIRSLLDRYRGRRVPV
